Experiment [1] concerns the target T1, USP13, endogenous in mouse colon tissue (mouse (endogenous in colon tissue)) (UniProt Q5BKP2).
T1 sequence: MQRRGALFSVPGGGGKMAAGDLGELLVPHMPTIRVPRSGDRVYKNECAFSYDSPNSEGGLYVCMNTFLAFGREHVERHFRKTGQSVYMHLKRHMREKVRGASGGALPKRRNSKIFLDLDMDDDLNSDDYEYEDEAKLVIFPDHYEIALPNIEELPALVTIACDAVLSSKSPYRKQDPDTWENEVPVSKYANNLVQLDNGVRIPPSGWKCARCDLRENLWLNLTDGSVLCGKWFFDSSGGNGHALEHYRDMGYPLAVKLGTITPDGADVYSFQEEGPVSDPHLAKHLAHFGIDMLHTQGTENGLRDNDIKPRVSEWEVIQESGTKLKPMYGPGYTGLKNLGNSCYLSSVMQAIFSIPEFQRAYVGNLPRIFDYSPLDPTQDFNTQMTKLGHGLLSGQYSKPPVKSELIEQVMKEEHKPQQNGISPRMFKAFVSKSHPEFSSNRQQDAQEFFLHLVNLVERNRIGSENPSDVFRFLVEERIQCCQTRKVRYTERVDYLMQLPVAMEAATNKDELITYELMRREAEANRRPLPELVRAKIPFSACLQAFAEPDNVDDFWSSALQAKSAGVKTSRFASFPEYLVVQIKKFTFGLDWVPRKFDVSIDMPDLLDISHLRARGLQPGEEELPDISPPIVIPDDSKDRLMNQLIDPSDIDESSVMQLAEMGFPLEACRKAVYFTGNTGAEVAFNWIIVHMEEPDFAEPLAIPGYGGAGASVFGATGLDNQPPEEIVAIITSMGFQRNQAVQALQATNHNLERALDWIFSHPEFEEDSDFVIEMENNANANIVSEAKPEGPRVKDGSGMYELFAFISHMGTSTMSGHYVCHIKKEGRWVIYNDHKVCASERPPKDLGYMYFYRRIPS
Kind of experiment: co-IP; endogenous proteins in lysates of colon tissues from DSS-treated mice; primary antibody overnight at 4 °C, protein A+G agarose beads, immunoblot. On the technique in general: Immunoblotting shows a protein as a band on a membrane.

Protein sequences, listed by entry. Tags and fused reporters are not part of them. Lines headed by an entry give the natural chain unless they say otherwise; changes in a name come on top. Chains listed by the source or under a name are the forms on record and can include a tag or linker. Residues count along the entry.
His-GRP78 (mouse) (P20029, residues 20-655): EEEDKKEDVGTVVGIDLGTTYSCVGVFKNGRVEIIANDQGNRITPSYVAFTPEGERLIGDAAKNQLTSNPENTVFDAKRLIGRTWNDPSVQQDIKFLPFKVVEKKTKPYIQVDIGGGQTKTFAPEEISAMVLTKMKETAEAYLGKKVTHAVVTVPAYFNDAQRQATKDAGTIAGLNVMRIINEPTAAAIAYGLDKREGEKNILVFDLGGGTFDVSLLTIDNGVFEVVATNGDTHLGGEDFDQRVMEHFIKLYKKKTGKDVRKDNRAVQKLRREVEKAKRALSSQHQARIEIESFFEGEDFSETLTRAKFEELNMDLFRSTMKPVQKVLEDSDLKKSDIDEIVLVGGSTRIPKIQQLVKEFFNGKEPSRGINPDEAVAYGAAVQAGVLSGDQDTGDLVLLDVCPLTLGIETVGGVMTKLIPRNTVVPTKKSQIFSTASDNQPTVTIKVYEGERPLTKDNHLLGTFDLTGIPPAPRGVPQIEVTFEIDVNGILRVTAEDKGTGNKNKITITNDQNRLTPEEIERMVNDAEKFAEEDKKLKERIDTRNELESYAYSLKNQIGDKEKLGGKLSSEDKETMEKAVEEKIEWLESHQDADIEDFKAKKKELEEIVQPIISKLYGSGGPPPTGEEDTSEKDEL
His-GRP78-K327R (mouse) (P20029, form named): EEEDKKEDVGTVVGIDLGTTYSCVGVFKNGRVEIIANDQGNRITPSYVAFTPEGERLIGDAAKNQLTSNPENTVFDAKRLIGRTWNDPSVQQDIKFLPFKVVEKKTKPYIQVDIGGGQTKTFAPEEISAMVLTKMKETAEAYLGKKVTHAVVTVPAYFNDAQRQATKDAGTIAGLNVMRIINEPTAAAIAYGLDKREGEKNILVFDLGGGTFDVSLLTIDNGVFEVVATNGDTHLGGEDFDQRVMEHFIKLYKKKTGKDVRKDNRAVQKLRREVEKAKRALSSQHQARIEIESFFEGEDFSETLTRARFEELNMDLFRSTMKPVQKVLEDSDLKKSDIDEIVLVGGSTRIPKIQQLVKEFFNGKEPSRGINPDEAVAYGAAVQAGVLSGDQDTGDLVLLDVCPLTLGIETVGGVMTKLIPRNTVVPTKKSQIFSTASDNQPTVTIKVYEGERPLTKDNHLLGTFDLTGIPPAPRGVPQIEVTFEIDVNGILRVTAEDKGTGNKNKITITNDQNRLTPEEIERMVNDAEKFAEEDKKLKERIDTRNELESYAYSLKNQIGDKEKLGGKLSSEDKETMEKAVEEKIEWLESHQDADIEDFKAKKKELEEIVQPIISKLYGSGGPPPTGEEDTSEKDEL
UniProt P11021, residues 19-654: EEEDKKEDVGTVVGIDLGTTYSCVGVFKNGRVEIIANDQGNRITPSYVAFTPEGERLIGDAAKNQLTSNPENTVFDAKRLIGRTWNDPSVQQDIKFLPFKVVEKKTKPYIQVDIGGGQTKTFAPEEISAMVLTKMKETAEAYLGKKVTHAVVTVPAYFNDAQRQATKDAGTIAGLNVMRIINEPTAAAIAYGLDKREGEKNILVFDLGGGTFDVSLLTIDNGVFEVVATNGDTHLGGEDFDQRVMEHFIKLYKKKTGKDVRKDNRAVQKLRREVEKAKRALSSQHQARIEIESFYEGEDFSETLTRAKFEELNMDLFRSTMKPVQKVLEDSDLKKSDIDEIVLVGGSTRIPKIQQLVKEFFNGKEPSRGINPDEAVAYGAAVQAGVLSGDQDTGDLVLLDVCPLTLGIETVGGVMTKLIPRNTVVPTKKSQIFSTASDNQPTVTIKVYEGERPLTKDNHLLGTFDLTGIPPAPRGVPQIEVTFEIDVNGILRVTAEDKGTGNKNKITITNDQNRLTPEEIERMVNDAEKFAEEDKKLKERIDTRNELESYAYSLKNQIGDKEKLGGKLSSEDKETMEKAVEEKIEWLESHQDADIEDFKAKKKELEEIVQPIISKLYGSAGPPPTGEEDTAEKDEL

Experiment [2] addresses T2, USP13, endogenous in NCM460 cells (human (endogenous in NCM460)) (UniProt Q92995).
T2 sequence: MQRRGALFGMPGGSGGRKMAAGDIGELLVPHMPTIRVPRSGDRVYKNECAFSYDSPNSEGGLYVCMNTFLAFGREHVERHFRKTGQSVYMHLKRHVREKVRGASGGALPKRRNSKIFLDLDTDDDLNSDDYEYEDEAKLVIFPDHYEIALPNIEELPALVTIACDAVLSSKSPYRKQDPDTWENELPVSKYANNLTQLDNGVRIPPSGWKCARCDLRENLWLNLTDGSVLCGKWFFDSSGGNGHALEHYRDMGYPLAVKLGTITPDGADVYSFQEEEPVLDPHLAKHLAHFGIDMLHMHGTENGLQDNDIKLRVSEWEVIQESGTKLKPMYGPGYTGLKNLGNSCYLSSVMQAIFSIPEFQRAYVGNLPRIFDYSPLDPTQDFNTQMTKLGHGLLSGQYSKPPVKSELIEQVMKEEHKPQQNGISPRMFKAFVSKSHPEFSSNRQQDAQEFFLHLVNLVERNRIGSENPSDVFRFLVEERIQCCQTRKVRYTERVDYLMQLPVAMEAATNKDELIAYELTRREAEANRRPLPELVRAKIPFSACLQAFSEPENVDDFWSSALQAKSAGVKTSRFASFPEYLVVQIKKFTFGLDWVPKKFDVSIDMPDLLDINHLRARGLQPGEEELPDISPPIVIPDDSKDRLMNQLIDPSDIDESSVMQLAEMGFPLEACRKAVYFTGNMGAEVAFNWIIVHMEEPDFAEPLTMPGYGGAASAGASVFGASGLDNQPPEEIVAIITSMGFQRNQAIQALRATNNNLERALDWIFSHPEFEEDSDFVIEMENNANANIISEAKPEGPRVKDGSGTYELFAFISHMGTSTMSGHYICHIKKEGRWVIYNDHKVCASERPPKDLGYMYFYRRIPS
Briefly: co-IP; endogenous proteins in lysates of LPS-stimulated or tunicamycin-stimulated NCM460 cells; primary antibody overnight at 4 °C, protein A+G agarose beads, immunoblot.

Experiment [3] deals with T3, Flag-USP13 (WT), expressed in NIH/3T3 cells (not stated (human or mouse cDNA cloned)) (UniProt Q5BKP2).
T3 sequence: T1 sequence
Kind of experiment: co-IP; Figure S4H (legend not shown): USP13 with GRP78 WT or K327R from plasmids; cells and antibodies not stated.

The target of experiment [4] is T3, Flag-USP13 (WT), expressed in NIH/3T3 cells (not stated (human or mouse cDNA cloned)). Briefly: co-IP; lysates of NIH/3T3 cells co-transfected with Flag-USP13 (WT) or USP13 (C343A) and His-GRP78; primary antibody overnight at 4 °C, protein A+G agarose beads, immunoblot.
For experiment [5], the target named is T4, USP13-C343A (mouse) (mouse) (UniProt Q5BKP2).
T4 sequence: T1 sequence with C343A
Described as above.

Numbering of substitutions follows the chain as printed. No constants are given. Whether binding was seen depends on the method and setting. Binding seen in cells or lysates may run through a third protein. Some results given as binding are weak or reduced against the parent protein; the word gives no strength. For part of these data: Sequences can lack the tags named with a protein.

In the case of “GRP78, endogenous in mouse colon tissue (from UniProt P20029 20-655)”, the binding result in experiment [1] is “binds”.

Consider “glucose-regulated protein 78 (GRP78), endogenous in NCM460 cells (from UniProt P11021 19-654)”, for which the binding entry in experiment [2] is on record as “binds”.

For the substance “His-GRP78 (mouse) (from UniProt P20029 20-655)”, the binding entry in experiment [3], in experiment [4] and in experiment [5] was “binds” in each case. As to “His-GRP78-K327R (mouse) (from UniProt P20029 20-655)”, the binding entry in experiment [3] was “binds”.

These data come from publication PMC12520541.
